At least one read-out could not be matched to a standard name with certainty. Numbered stars: 1 amine (or outer) side, 2 acyl side, 3 side chain; on linkers, the order of the positions; unused ones are H or OH. Square brackets hold non-standard residues; d marks the D form. Peptide text beside a SMILES is read from it. * marks the point of attachment. X3 = NP(=O)(OCc1ccc(N*)cc1)N(CCCl)CCCl; Glutaryl = O=C(CCCC(=O)[*:2])[*:1]; Hyp = O=C(O)[C@@H]1C[C@@H](O)CN1; Chg = N[C@H](C(=O)O)C1CCCCC1
Target: PSA (Homo sapiens, UniProt P07288)
Experiment: PSA cleavage of peptide-linker-drug conjugates, disappearance monitored by HPLC
Format: biochemical
Conditions: in the presence of PSA
Procedure: First, the stability and PSA cleavage of glutaryl-Hyp-Ala-Ser-Chg-Gln-aminobenzyl phosphoramide mustard without substitutions on the benzyl ring (5a) was tested by monitoring the disappearance of the peptide-linker-drug conjugate using HPLC. […] Thus, peptide-linker-drug conjugate 5a is a substrate of PSA. The hydrolysis in the presence of PSA was 40 times faster than that in the absence of PSA. But, the instability in the absence of PSA was a concern. This instability can be addressed by introducing an electron-withdrawing fluorine atom on the aromatic ring as shown in Table 1. […] In the presence of PSA, they were more quickly hydrolyzed with t½of 43 and 57 min, respectively.

By UniProt entry, the sequences of proteins in these tests, tags left out. Residues count along the entry.
UniProt P07288, 25-261: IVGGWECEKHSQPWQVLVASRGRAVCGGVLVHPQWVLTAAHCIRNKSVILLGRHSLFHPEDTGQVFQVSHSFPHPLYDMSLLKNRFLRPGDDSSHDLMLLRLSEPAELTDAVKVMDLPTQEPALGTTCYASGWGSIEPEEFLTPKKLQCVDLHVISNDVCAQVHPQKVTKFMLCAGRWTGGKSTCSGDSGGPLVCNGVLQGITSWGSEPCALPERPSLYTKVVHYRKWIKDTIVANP

With `C[C@H](NC(=O)[C@@H]1C[C@@H](O)CN1C(=O)CCCC(=O)O)C(=O)N[C@@H](CO)C(=O)N[C@H](C(=O)N[C@@H](CCC(N)=O)C(=O)Nc1ccc(COP(N)(=O)N(CCCl)CCCl)cc1)C1CCCCC1` (stereo partly drawn) [5a, glutaryl-Hyp-Ala-Ser-Chg-Gln-NH-benzyl phosphoramide mustard] (Glutaryl-[Hyp]AS[Chg]Q-X3) the “T1/2 +PSA (PSA-catalyzed cleavage)” value was 1.1 h.

Source: patent US8518891B2 (priority 2006, dated 2013)
